Experimental data: article PMC12363165
These are yes or no findings as the source states them, for the method shown. Binding seen in cells or lysates may run through a third protein. Here binding means that the protein was enriched with, or labelled near, the bait; the list need not be complete.

The chains behind the UniProt entries cited, without tags or fusion partners. Residues count along the entry.
UniProt P05923: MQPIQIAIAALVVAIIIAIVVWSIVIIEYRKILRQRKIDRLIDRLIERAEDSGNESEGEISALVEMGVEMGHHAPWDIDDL
UniProt Q9UKB1: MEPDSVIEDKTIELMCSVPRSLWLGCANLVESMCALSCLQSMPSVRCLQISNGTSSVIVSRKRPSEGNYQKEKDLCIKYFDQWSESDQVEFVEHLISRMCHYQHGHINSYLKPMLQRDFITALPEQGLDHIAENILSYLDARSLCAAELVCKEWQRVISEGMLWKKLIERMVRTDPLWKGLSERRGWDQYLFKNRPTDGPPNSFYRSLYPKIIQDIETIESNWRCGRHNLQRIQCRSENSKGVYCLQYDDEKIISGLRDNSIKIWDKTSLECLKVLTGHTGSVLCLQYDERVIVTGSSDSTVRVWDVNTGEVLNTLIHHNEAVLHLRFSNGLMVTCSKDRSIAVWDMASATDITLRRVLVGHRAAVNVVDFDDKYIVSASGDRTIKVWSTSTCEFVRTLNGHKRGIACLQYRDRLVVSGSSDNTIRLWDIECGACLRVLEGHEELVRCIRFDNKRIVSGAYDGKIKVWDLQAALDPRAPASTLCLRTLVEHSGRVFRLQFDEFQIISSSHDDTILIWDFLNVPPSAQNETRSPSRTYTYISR
UniProt Q9Y297: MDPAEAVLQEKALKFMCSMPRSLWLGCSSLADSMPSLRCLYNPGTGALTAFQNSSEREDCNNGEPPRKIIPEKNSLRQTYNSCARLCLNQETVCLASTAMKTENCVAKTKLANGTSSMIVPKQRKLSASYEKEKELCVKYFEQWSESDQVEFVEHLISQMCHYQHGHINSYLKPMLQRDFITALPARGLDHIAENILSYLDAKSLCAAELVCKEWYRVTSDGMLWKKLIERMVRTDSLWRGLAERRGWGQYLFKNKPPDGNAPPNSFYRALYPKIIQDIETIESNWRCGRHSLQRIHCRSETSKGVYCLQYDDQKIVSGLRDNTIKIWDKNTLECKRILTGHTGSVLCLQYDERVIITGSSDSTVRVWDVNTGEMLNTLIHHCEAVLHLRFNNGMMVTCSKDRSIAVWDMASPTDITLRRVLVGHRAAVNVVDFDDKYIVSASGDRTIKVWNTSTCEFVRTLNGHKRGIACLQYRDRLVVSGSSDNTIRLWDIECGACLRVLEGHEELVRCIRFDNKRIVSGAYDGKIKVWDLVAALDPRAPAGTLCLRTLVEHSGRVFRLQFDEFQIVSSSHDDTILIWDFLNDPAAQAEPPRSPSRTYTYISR
UniProt O14981: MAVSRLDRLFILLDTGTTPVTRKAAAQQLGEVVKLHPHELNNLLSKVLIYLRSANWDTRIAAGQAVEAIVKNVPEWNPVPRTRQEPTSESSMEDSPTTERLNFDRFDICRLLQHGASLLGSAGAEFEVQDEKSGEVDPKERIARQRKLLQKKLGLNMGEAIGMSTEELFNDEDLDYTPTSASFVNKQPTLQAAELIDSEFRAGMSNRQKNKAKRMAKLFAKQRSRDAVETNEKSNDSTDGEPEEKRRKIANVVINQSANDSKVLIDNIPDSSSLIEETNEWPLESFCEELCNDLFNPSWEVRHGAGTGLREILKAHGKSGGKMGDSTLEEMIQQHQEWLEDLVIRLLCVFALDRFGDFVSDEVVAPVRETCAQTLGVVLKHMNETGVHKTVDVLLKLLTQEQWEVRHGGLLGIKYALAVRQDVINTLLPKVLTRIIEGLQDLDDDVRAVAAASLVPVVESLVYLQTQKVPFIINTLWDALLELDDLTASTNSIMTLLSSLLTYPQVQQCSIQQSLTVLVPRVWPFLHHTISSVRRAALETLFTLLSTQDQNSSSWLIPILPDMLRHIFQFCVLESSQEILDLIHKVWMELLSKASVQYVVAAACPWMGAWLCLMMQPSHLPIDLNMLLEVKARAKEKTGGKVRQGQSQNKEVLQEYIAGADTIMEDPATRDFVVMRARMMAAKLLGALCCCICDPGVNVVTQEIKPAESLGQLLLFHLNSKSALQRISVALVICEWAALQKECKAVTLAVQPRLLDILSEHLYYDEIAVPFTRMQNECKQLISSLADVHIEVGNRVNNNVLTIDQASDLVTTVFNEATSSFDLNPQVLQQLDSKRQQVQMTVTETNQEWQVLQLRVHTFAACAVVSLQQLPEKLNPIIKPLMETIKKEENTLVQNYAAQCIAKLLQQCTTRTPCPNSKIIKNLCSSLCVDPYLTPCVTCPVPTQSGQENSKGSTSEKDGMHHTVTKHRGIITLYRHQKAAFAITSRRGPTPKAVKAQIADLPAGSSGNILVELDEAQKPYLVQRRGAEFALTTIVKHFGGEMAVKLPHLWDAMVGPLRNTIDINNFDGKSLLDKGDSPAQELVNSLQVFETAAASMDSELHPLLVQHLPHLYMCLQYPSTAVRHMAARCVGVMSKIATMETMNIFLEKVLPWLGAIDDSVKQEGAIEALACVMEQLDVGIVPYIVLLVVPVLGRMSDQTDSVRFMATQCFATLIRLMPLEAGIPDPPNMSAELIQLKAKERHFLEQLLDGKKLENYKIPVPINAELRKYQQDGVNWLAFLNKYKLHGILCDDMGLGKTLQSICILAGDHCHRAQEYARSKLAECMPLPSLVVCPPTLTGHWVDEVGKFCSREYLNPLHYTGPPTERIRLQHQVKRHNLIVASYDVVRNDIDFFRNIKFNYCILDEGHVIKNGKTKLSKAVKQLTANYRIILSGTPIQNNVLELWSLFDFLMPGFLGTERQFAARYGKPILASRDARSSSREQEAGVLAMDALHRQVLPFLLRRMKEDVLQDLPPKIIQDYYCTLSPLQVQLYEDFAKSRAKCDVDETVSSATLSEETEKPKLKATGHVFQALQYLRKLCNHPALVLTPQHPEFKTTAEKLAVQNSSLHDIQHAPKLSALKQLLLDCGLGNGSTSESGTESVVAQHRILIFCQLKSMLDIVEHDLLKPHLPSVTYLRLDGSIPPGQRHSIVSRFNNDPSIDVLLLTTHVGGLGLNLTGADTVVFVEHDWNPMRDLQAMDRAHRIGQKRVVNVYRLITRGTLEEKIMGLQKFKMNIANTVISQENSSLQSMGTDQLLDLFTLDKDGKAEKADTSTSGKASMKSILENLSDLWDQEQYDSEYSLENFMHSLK
UniProt P98175: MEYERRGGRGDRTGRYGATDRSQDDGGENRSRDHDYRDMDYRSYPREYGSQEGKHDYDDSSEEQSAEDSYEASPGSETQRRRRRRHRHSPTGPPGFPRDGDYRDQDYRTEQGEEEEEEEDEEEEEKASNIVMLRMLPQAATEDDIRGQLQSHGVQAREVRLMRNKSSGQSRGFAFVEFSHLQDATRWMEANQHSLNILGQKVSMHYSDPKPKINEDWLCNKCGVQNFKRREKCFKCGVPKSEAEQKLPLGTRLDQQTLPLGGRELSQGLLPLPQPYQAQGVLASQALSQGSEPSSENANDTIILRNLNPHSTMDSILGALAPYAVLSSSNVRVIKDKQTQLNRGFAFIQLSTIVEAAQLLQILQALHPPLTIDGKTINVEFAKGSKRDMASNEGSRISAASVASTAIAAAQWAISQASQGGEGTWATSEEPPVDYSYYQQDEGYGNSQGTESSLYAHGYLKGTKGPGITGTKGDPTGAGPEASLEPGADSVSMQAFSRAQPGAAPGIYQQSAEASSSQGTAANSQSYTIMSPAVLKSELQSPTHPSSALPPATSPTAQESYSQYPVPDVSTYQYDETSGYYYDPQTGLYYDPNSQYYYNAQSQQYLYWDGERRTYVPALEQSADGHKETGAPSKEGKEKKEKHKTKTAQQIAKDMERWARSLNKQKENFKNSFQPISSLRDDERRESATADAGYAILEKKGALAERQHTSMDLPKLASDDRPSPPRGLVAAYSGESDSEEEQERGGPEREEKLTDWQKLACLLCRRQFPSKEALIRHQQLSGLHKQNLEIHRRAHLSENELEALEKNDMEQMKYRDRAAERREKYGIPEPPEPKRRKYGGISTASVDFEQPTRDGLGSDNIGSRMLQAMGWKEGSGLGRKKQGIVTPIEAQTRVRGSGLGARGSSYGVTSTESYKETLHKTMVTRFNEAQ
UniProt Q9Y6D5: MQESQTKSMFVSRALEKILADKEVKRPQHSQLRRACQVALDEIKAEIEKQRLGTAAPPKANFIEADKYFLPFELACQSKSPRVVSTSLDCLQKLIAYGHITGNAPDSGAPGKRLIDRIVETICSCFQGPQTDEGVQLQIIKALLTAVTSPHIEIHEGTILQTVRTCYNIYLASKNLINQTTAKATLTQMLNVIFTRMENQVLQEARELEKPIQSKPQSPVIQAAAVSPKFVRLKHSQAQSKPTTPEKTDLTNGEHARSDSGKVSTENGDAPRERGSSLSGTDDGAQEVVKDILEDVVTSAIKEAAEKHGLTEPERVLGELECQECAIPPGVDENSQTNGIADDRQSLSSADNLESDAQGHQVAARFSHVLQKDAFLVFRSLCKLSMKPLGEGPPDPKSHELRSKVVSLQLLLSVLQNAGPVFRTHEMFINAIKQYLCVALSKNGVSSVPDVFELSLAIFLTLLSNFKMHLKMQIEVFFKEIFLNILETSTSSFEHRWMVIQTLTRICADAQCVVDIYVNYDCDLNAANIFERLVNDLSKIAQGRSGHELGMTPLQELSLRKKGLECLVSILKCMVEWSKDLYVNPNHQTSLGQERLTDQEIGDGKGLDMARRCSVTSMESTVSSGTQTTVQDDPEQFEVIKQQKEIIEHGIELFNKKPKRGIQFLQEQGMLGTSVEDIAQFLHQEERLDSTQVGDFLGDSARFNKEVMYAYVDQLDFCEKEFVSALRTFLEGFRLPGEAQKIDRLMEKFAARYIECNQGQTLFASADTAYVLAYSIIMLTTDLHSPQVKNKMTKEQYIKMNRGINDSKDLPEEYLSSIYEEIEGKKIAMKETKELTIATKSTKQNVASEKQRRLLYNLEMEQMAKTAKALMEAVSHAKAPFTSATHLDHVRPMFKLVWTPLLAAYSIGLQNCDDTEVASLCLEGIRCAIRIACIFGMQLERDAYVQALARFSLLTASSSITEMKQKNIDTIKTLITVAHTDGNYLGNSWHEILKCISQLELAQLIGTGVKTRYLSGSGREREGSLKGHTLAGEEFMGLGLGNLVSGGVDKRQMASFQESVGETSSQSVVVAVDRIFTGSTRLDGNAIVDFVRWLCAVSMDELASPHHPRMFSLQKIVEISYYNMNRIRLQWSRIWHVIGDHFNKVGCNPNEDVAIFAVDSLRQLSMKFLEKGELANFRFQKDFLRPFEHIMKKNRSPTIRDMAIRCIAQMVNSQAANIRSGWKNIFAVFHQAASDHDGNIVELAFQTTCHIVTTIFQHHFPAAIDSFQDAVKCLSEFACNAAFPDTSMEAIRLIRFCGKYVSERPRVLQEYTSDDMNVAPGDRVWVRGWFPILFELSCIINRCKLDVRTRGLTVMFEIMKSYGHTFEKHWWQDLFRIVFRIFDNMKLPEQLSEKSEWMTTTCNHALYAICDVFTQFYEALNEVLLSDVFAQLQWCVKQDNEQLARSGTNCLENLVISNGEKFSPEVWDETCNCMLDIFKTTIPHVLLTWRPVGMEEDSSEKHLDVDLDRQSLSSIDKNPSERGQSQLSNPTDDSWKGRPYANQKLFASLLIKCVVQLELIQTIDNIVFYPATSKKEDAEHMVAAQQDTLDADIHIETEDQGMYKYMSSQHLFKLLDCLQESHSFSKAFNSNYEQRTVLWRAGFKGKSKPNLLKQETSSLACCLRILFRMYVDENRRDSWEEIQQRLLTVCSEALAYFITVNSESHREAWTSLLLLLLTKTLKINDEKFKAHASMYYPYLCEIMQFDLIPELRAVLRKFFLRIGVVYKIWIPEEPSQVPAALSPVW
UniProt Q10589, residues 1-161: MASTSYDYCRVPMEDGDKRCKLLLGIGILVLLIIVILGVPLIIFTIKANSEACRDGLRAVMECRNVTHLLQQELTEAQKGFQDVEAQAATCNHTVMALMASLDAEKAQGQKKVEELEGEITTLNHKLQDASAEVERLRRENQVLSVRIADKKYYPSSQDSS

Legend:
[1] = biological target: Vpu-V5-APEX2 (HIV-1 viral protein U fused to a V5-APEX2 tag) (HIV-1) (UniProt P05923); assay: proximity labelling; APEX2 labelling in HeLa cells transfected with Vpu-APEX2 (control APEX2-NES); biotinyl tyramide 30 min, 1 mM H2O2 1 min; streptavidin beads, on-bead digestion, label-free quantitative mass spectrometry; hits Log2FC > 2, P < 0.05
[2] = biological target: Vpu-V5-APEX2 (HIV-1 viral protein U fused to a V5-APEX2 tag) (HIV-1) (UniProt P05923); assay: affinity purification with mass spectrometry; HeLa cells transfected with Vpu-APEX2 or APEX2-NES, 48 h; Pierce IP lysis buffer; anti-V5 magnetic beads 2 h at 4 C; washes 50 mM Tris-HCl pH 7.5, 150 mM NaCl, 0.05% NP-40; gel, trypsin, mass spectrometry; hits Log2FC > 2, score > 3

“FBXW11, endogenous (from UniProt Q9UKB1 1-542)” was tested, and the binding [1] was “binds” and the binding [2] was “binds”.
“BTRC, endogenous (from UniProt Q9Y297 1-605)” was tested, and the binding [1] was “binds” and the binding [2] was “binds”.
“BTAF1, endogenous (from UniProt O14981 1-1849)” was tested, and the binding [1] was “binds” and the binding [2] was “binds”.
In the case of “RNA-binding motif protein 10 (RBM10), endogenous (from UniProt P98175 1-930)”, the binding [1] is reported as “binds” and the binding [2] is reported as “binds”.
For “ARFGEF2, endogenous (from UniProt Q9Y6D5 1-1785)”, the binding [1] was “binds” and the binding [2] was “binds”.
For “BST-2, endogenous (from UniProt Q10589 1-161)”, the binding [2] was “binds”.
